Results are given in words; binding and its absence hold for the method and conditions named. Binding seen in cells or lysates may run through a third protein. Some entries that bind do so weakly or less than the wild type.
Target: Focal adhesion kinase (FAK), wild-type, re-expressed in FAK-deficient SCC cells (UniProt P34152)
Test: co-IP; FAK immunoprecipitation from SCC FAK-WT cell nuclear extracts, TAF9 detected

The chains behind the UniProt entries cited, without tags or fusion partners.
UniProt P34152: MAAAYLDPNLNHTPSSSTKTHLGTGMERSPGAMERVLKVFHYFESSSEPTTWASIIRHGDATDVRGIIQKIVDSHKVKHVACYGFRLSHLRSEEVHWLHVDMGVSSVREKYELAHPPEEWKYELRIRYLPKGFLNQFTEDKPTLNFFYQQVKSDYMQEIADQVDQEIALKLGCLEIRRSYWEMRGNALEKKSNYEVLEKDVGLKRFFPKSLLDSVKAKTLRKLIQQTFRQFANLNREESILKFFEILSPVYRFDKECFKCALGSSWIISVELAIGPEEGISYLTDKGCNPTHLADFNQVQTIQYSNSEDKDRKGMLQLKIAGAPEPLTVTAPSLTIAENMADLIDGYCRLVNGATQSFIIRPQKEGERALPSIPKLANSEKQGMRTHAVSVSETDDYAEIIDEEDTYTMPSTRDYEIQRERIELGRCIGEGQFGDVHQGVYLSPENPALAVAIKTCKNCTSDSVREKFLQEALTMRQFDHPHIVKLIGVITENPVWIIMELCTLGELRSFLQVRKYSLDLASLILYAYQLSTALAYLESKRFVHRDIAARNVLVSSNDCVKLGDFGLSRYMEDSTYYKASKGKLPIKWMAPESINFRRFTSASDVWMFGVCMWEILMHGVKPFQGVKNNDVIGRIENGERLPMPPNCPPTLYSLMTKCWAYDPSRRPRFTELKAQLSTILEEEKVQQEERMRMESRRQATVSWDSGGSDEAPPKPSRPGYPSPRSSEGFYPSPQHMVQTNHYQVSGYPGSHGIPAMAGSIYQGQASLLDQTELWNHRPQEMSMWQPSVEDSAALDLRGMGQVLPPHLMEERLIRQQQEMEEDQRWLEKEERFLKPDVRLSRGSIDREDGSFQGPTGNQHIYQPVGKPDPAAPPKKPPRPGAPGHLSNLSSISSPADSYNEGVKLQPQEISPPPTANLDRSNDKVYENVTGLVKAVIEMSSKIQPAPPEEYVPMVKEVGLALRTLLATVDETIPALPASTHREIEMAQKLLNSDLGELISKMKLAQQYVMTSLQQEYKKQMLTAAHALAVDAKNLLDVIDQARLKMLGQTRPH

B1: TAF9, TBP-associated factor, core component of the TFIID complex (protein, UniProt Q8VI33 1-264)
chain: MESGKMASPKSMPKDAQMMAQILKDMGITEYEPRVINQMLEFAFRYVTTILDDAKIYSSHAKKATVDADDVRLAIQCRADQSFTSPPPRDFLLDIARQRNQTPLPLIKPYSGPRLPPDRYCLTAPNYRLKSLQKKAPAPAGRITVPRLSVGSVSSRPSTPTLGTPTPQTMSVSTKVGTPMSLTGQRFTVQMPASQSPAVKASIPATSTVQNVLINPSLIGSKNILITTNMVSQNTAESANALKRKREDDDDDDDDDDDDDYDNM
Question: B1 was tested. Which binding did it give?
Answer: The binding was “binds”.

— PMC4597190
